Data as given in publication PMC7956269.
No constants are given. Whether binding was seen depends on the method and setting. In cells and extracts the contact can be indirect. A yes stands for co-enrichment or nearness to the bait. Other partners may have been found. Where a sequence is shown, tags or fusion partners need not be part of it.

B1: S100a8 (protein, UniProt P05109 1-93)
chain: MLTELEKALNSIIDVYHKYSLIKGNFHAVYRDDLKKLLETECPQYIRKKGADVWFKELDINTDGAVNFQEFLILVIKMGVAAHKKSHEESHKE
B2: Gtf2h2 (protein, UniProt Q13888 1-395)
chain: MDEEPERTKRWEGGYERTWEILKEDESGSLKATIEDILFKAKRKRVFEHHGQVRLGMMRHLYVVVDGSRTMEDQDLKPNRLTCTLKLLEYFVEEYFDQNPISQIGIIVTKSKRAEKLTELSGNPRKHITSLKKAVDMTCHGEPSLYNSLSIAMQTLKHMPGHTSREVLIIFSSLTTCDPSNIYDLIKTLKAAKIRVSVIGLSAEVRVCTVLARETGGTYHVILDESHYKELLTHHVSPPPASSSSECSLIRMGFPQHTIASLSDQDAKPSFSMAHLDGNTEPGLTLGGYFCPQCRAKYCELPVECKICGLTLVSAPHLARSYHHLFPLDAFQEIPLEEYNGERFCYGCQGELKDQHVYVCAVCQNVFCVDCDVFVHDSLHCCPGCIHKIPAPSGV
B3: Vcpip1 (protein, UniProt Q96JH7 1-1222)
chain: MSQPPPPPPPLPPPPPPPEAPQTPSSLASAAASGGLLKRRDRRILSGSCPDPKCQARLFFPASGSVSIECTECGQRHEQQQLLGVEEVTDPDVVLHNLLRNALLGVTGAPKKNTELVKVMGLSNYHCKLLSPILARYGMDKQTGRAKLLRDMNQGELFDCALLGDRAFLIEPEHVNTVGYGKDRSGSLLYLHDTLEDIKRANKSQECLIPVHVDGDGHCLVHAVSRALVGRELFWHALRENLKQHFQQHLARYQALFHDFIDAAEWEDIINECDPLFVPPEGVPLGLRNIHIFGLANVLHRPIILLDSLSGMRSSGDYSATFLPGLIPAEKCTGKDGHLNKPICIAWSSSGRNHYIPLVGIKGAALPKLPMNLLPKAWGVPQDLIKKYIKLEEDGGCVIGGDRSLQDKYLLRLVAAMEEVFMDKHGIHPSLVADVHQYFYRRTGVIGVQPEEVTAAAKKAVMDNRLHKCLLCGALSELHVPPEWLAPGGKLYNLAKSTHGQLRTDKNYSFPLNNLVCSYDSVKDVLVPDYGMSNLTACNWCHGTSVRKVRGDGSIVYLDGDRTNSRSTGGKCGCGFKHFWDGKEYDNLPEAFPITLEWGGRVVRETVYWFQYESDSSLNSNVYDVAMKLVTKHFPGEFGSEILVQKVVHTILHQTAKKNPDDYTPVNIDGAHAQRVGDVQGQESESQLPTKIILTGQKTKTLHKEELNMSKTERTIQQNITEQASVMQKRKTEKLKQEQKGQPRTVSPSTIRDGPSSAPATPTKAPYSPTTSKEKKIRITTNDGRQSMVTLKSSTTFFELQESIAREFNIPPYLQCIRYGFPPKELMPPQAGMEKEPVPLQHGDRITIEILKSKAEGGQSAAAHSAHTVKQEDIAVTGKLSSKELQEQAEKEMYSLCLLATLMGEDVWSYAKGLPHMFQQGGVFYSIMKKTMGMADGKHCTFPHLPGKTFVYNASEDRLELCVDAAGHFPIGPDVEDLVKEAVSQVRAEATTRSRESSPSHGLLKLGSGGVVKKKSEQLHNVTAFQGKGHSLGTASGNPHLDPRARETSVVRKHNTGTDFSNSSTKTEPSVFTASSSNSELIRIAPGVVTMRDGRQLDPDLVEAQRKKLQEMVSSIQASMDRHLRDQSTEQSPSDLPQRKTEVVSSSAKSGSLQTGLPESFPLTGGTENLNTETTDGCVADALGAAFATRSKAQRGNSVEELEEMDSQDAEMTNTTEPMDHS
B4: Luc7l2 (protein, UniProt Q9Y383 1-392)
chain: MSAQAQMRAMLDQLMGTSRDGDTTRQRIKFSDDRVCKSHLLNCCPHDVLSGTRMDLGECLKVHDLALRADYEIASKEQDFFFELDAMDHLQSFIADCDRRTEVAKKRLAETQEEISAEVAAKAERVHELNEEIGKLLAKVEQLGAEGNVEESQKVMDEVEKARAKKREAEEVYRNSMPASSFQQQKLRVCEVCSAYLGLHDNDRRLADHFGGKLHLGFIEIREKLEELKRVVAEKQEKRNQERLKRREEREREEREKLRRSRSHSKNPKRSRSREHRRHRSRSMSRERKRRTRSKSREKRHRHRSRSSSRSRSRSHQRSRHSSRDRSRERSKRRSSKERFRDQDLASCDRDRSSRDRSPRDRDRKDKKRSYESANGRSEDRRSSEEREAGEI
B5: Krt9 (protein, UniProt P35527 1-623)
chain: MSCRQFSSSYLSRSGGGGGGGLGSGGSIRSSYSRFSSSGGGGGGGRFSSSSGYGGGSSRVCGRGGGGSFGYSYGGGSGGGFSASSLGGGFGGGSRGFGGASGGGYSSSGGFGGGFGGGSGGGFGGGYGSGFGGFGGFGGGAGGGDGGILTANEKSTMQELNSRLASYLDKVQALEEANNDLENKIQDWYDKKGPAAIQKNYSPYYNTIDDLKDQIVDLTVGNNKTLLDIDNTRMTLDDFRIKFEMEQNLRQGVDADINGLRQVLDNLTMEKSDLEMQYETLQEELMALKKNHKEEMSQLTGQNSGDVNVEINVAPGKDLTKTLNDMRQEYEQLIAKNRKDIENQYETQITQIEHEVSSSGQEVQSSAKEVTQLRHGVQELEIELQSQLSKKAALEKSLEDTKNRYCGQLQMIQEQISNLEAQITDVRQEIECQNQEYSLLLSIKMRLEKEIETYHNLLEGGQEDFESSGAGKIGLGGRGGSGGSYGRGSRGGSGGSYGGGGSGGGYGGGSGSRGGSGGSYGGGSGSGGGSGGGYGGGSGGGHSGGSGGGHSGGSGGNYGGGSGSGGGSGGGYGGGSGSRGGSGGSHGGGSGFGGESGGSYGGGEEASGSGGGYGGGSGKSSHS
B6: Zc3hav1l (protein, UniProt Q96H79 1-300)
chain: MAEPTVCSFLTKVLCAHGGRMFLKDLRGHVELSEARLRDVLQRAGPERFLLQEVETQEGLGDAEAEAAAGAVGGGGTSAWRVVAVSSVRLCARYQRGECQACDQLHFCRRHMLGKCPNRDCWSTCTLSHDIHTPVNMQVLKSHGLFGLNENQLRILLLQNDPCLLPEVCLLYNKGEALYGYCNLKDKCNKFHVCKSFVKGECKLQTCKRSHQLIHAASLKLLQDQGLNIPSVVNFQIISTYKHMKLHKMLENTDNSSPSTEHSQGLEKQGVHAAGAAEAGPLASVPAQSAKKPCPVSCEK
B7: Trmt10c (protein, UniProt Q7L0Y3 40-403)
chain: MSSKIPAVTYPKNESTPPSEELELDKWKTTMKSSVQEECVSTISSSKDEDPLAATREFIEMWRLLGREVPEHITEEELKTLMECVSNTAKKKYLKYLYTKEKVKKARQIKKEMKAAAREEAKNIKLLETTEEDKQKNFLFLRLWDRNMDIAMGWKGAQAMQFGQPLVFDMAYENYMKRKELQNTVSQLLESEGWNRRNVDPFHIYFCNLKIDGALHRELVKRYQEKWDKLLLTSTEKSHVDLFPKDSIIYLTADSPNVMTTFRHDKVYVIGSFVDKSMQPGTSLAKAKRLNLATECLPLDKYLQWEIGNKNLTLDQMIRILLCLKNNGNWQEALQFVPKRKHTGFLEISQHSQEFINRLKKAKT
B8: Ddx1 (protein, UniProt Q92499 1-740)
chain: MAAFSEMGVMPEIAQAVEEMDWLLPTDIQAESIPLILGGGDVLMAAETGSGKTGAFSIPVIQIVYETLKDQQEGKKGKTTIKTGASVLNKWQMNPYDRGSAFAIGSDGLCCQSREVKEWHGCRATKGLMKGKHYYEVSCHDQGLCRVGWSTMQASLDLGTDKFGFGFGGTGKKSHNKQFDNYGEEFTMHDTIGCYLDIDKGHVKFSKNGKDLGLAFEIPPHMKNQALFPACVLKNAELKFNFGEEEFKFPPKDGFVALSKAPDGYIVKSQHSGNAQVTQTKFLPNAPKALIVEPSRELAEQTLNNIKQFKKYIDNPKLRELLIIGGVAARDQLSVLENGVDIVVGTPGRLDDLVSTGKLNLSQVRFLVLDEADGLLSQGYSDFINRMHNQIPQVTSDGKRLQVIVCSATLHSFDVKKLSEKIMHFPTWVDLKGEDSVPDTVHHVVVPVNPKTDRLWERLGKSHIRTDDVHAKDNTRPGANSPEMWSEAIKILKGEYAVRAIKEHKMDQAIIFCRTKIDCDNLEQYFIQQGGGPDKKGHQFSCVCLHGDRKPHERKQNLERFKKGDVRFLICTDVAARGIDIHGVPYVINVTLPDEKQNYVHRIGRVGRAERMGLAISLVATEKEKVWYHVCSSRGKGCYNTRLKEDGGCTIWYNEMQLLSEIEEHLNCTISQVEPDIKVPVDEFDGKVTYGQKRAAGGGSYKGHVDILAPTVQELAALEKEAQTSFLHLGYLPNQLFRTF
B9: Mcm3 (protein, UniProt P25205 1-808)
chain: MAGTVVLDDVELREAQRDYLDFLDDEEDQGIYQSKVRELISDNQYRLIVNVNDLRRKNEKRANRLLNNAFEELVAFQRALKDFVASIDATYAKQYEEFYVGLEGSFGSKHVSPRTLTSCFLSCVVCVEGIVTKCSLVRPKVVRSVHYCPATKKTIERRYSDLTTLVAFPSSSVYPTKDEENNPLETEYGLSVYKDHQTITIQEMPEKAPAGQLPRSVDVILDDDLVDKAKPGDRVQVVGTYRCLPGKKGGYTSGTFRTVLIACNVKQMSKDAQPSFSAEDIAKIKKFSKTRSKDIFDQLAKSLAPSIHGHDYVKKAILCLLLGGVERDLENGSHIRGDINILLIGDPSVAKSQLLRYVLCTAPRAIPTTGRGSSGVGLTAAVTTDQETGERRLEAGAMVLADRGVVCIDEFDKMSDMDRTAIHEVMEQGRVTIAKAGIHARLNARCSVLAAANPVYGRYDQYKTPMENIGLQDSLLSRFDLLFIMLDQMDPEQDREISDHVLRMHRYRAPGEQDGDAMPLGSAVDILATDDPNFSQEDQQDTQIYEKHDNLLHGTKKKKEKMVSAAFMKKYIHVAKIIKPVLTQESATYIAEEYSRLRSQDSMSSDTARTSPVTARTLETLIRLATAHAKARMSKTVDLQDAEEAVELVQYAYFKKVLEKEKKRKKRSEDESETEDEEEKSQEDQEQKRKRRKTRQPDAKDGDSYDPYDFSDTEEEMPQVHTPKTADSQETKESQKVELSESRLKAFKVALLDVFREAHAQSIGMNRLTESINRDSEEPFSSVEIQAALSKMQDDNQVMVSEGIIFLI
B10: Rrp1 (protein, UniProt P56182 1-461)
chain: MVSRVQLPPEIQLAQRLAGNEQVTRDRAVRKLRKYIVARTQRAAGGFTHDELLKVWKGLFYCMWMQDKPLLQEELGRTISQLVHAFQTTEAQHLFLQAFWQTMNREWTGIDRLRLDKFYMLMRMVLNESLKVLKMQGWEERQIEELLELLMTEILHPSSQAPNGVKSHFIEIFLEELTKVGAEELTADQNLKFIDPFCRIAARTKDSLVLNNITRGIFETIVEQAPLAIEDLLNELDTQDEEVASDSDESSEGGERGDALSQKRSEKPPAGSICRAEPEAGEEQAGDDRDSGGPVLQFDYEAVANRLFEMASRQSTPSQNRKRLYKVIRKLQDLAGGIFPEDEIPEKACRRLLEGRRQKKTKKQKRLLRLQQERGKGEKEPPSPGMERKRSRRRGVGADPEARAEAGEQPGTAERALLRDQPRGRGQRGARQRRRTPRPLTSARAKAANVQEPEKKKKRRE

The binders below were run against Biotin-FOXC1 (mouse) (UniProt Q61572) (assay: affinity purification with mass spectrometry; streptavidin-agarose precipitation of biotinylated FOXC1 from nuclear extract of stable HEK293T cells (293T-Biotin-FOXC1); IP350 buffer (350 mM NaCl, 20 mM Tris-HCl pH 7.5, 0.5% NP40, 1 mM EDTA, 10% glycerin); SDS-PAGE, LC-ESI-MS/MS; proteins of the 293T-Biotin control deducted).

binding, binds:
B1
B2
B3
B4
B5
B6
B7
B8
B9
B10
